# Measured values published in US20240116988A1 (BRISTOL-MYERS SQUIBB COMPANY, priority 2022, published 2024).
# Experiment: general procedure: Fmoc solid-phase peptide synthesis; Sieber amide resin (0.71 mmol/g); Rink resin (0.56 mmol/g); 2-chlorotrityl chloride resin (1.54 mmol/g); Fmoc-glycine-2-; HATU
# Settings: conjugation step
substance,measurement,value
"3-((S)-1-((3R,6S,9S,12S,15S,21S,24S,27S,30S,33S,36S)-15-((1H-indol-3-yl)methyl)-9,36-dibenzyl-12,24,33-tris(4- hydroxybenzyl)-21-(hydroxymethyl)-6,30-diisobutyl-27-isopropyl-10-methyl-5,8,11,14,17,20,23,26,29,32,35,38-dodecaoxo-1-thia-4,7,10,13,16,19,22,25,28,31,34,37-dodecaazacyclononatriacontan- 3-yl)-12-carbamoyl-1,4,7,10,18-pentaoxo-2,5,8,11,17-pentaazatricosan-23-yl)-2-((lE,3E,5E)-5-(3,3-dimethyl-5-sulfo-1-(4-sulfobutyl)indolin-2- ylidene)penta-1,3-dien-1-yl)-3-methyl-3H-indole-5-sulfonic acid",conjugation yield,83% yield
